Laboratory results taken from article PMC11667820.
No constants are given. Whether binding was seen depends on the method and setting. Binding seen in cells or lysates may run through a third protein. A result given as binding can be weak or reduced; the word gives no strength.

How the values were obtained:
[1] = target: T1, vinexin-β (human (endogenous in FaDu and SAS)) (UniProt O60504); test: co-IP; anti-vinexin immunoprecipitation from lysates of SAS cells expressing RARγ4 constructs; lysis buffer 20 mM Tris-HCl pH 7.5, 150 mM NaCl, 1 mM Na2EDTA, 1 mM EGTA, 0.2% Triton, 1 mM PMSF; 4 °C overnight; protein A/G-agarose; blot for rhotekin and RARγ4
T1 sequence: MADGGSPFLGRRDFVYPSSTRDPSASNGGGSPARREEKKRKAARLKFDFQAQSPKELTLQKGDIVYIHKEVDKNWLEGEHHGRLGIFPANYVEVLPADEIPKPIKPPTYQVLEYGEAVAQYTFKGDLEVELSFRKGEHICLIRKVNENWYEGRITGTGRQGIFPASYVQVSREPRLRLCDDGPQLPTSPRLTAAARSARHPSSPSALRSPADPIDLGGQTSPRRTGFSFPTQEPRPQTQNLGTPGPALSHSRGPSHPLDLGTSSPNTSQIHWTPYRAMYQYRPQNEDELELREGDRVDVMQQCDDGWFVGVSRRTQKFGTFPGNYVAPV

[2] = target: Flag-tagged RARγ4-S7A (phospho-defective mutant) (human); test: co-IP; anti-Flag immunoprecipitation from lysates of FaDu and SAS cells expressing Flag-RARγ4 or its mutants; lysis buffer 20 mM Tris-HCl pH 7.5, 150 mM NaCl, 1 mM Na2EDTA, 1 mM EGTA, 0.2% Triton, 1 mM PMSF; 4 °C overnight; protein A/G-agarose; blot for vinexin-β; in one panel cells treated with THZ1 (200 nM) or SB203580 (1 μM) for 6 h
[3] = target: Flag-tagged RARγ4-R324G (RA-binding defective mutant) (human); test: as above
[4] = target: Flag-tagged RARγ4-S299A (phospho-defective mutant) (human); test: as above
[5] = target: Flag-tagged RARγ4 (retinoic acid receptor gamma isoform 4), wild type (human); test: as above
[6] = target: Flag-tagged RARγ4-S7E (phospho-mimetic mutant) (human); test: as above
[7] = target: Flag-tagged RARγ4-S299E (phospho-mimetic mutant) (human); test: as above

Measured: binding

Flag-tagged RARγ4-S7A (phospho-defective mutant) (human)
binds: [1]

B1: vinexin-β (protein, UniProt O60504-2 1-329)
chain: MADGGSPFLGRRDFVYPSSTRDPSASNGGGSPARREEKKRKAARLKFDFQAQSPKELTLQKGDIVYIHKEVDKNWLEGEHHGRLGIFPANYVEVLPADEIPKPIKPPTYQVLEYGEAVAQYTFKGDLEVELSFRKGEHICLIRKVNENWYEGRITGTGRQGIFPASYVQVSREPRLRLCDDGPQLPTSPRLTAAARSARHPSSPSALRSPADPIDLGGQTSPRRTGFSFPTQEPRPQTQNLGTPGPALSHSRGPSHPLDLGTSSPNTSQIHWTPYRAMYQYRPQNEDELELREGDRVDVMQQCDDGWFVGVSRRTQKFGTFPGNYVAPV
binds: [2] | [3] | [4] | [5] | [6] | [7]
